Measurements reported in publication PMC5578672.
Results are given in words; binding and its absence hold for the method and conditions named. Some entries that bind do so weakly or less than the wild type. Sequences can lack the tags named with a protein.

Target: T1, Drosophila Piwi, tagged version (Drosophila), Q9VKM1
T1 chain: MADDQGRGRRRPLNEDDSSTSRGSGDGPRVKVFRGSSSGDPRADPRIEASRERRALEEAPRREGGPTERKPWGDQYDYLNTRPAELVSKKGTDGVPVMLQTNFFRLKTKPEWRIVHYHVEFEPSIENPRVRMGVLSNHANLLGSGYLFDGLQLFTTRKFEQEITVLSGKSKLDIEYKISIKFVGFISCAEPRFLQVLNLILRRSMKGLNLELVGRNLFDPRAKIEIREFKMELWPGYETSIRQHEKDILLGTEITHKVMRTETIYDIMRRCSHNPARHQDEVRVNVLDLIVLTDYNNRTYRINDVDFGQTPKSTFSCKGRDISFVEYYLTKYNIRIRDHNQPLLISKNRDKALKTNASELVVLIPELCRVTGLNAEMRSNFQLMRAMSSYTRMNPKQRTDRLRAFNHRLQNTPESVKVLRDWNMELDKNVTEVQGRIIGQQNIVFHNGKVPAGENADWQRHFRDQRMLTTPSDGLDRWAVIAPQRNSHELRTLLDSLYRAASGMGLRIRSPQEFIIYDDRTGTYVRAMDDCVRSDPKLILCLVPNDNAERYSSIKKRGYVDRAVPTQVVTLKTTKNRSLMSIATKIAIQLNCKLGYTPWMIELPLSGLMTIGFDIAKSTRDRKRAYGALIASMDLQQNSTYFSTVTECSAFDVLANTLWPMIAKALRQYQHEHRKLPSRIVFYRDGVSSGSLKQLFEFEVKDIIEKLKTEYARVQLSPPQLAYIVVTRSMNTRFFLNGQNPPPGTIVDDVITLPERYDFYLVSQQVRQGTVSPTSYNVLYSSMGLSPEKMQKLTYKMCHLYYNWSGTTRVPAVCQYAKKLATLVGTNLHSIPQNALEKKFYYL
Assay: tandem affinity co-purification; tagged Armi and Piwi co-expressed in insect cell cultures, tandem affinity purification, Coomassie gel; bands identified by mass spectrometry and Western blotting for the tags
Conditions: remark: other sources report otherwise

B1: Drosophila Armitage (Armi), tagged version, Q6J5K9 1-1188 (protein)
chain: MFTYVSKFFTNPDRNREDILESLDRENSFLDQKLMEEKMDQQLKANPNEINGVLSNKIAELTHGLSEMDVSKESSCTARKGVITSLDGDRGVIDKDVLFETKVAEDIILDLHVGCVVEYLTFTTGEAMRVVKVKSILEHSWEDTSQKEIEKAVDNLKNEKPTFFNTETRSVLGLISQRLASSIDVETEYGQLTVELDNIEMNFIPTNGDRVRLECNIQLDDGFVDKQGEILEVTKLFPTRIQEGEKCIVERVYVHMVVLGPETYILKTDLPTGTDLHLGDIVLADLIECQYSKFTRRAIKITPLEKNFGATKLTQQSSMGSSGSGKAVTVTGVNRFITAELWQKESVSLKLTNNLNRTLRLESITVCNDSESQLSVVSPLESKEISSGSEITVTFEIHTQFLGEAIEKYVLNFDLLKVRRVFTVIVCKTKEEVAEAEKRMIAAEALMAPGRNSQERSRFYANQVWCNKVDVIPGQQIVTKRRFVALRLGCFEVPKELRQICLTSERRQEMIKAIEQHYSFLTEPLSIKTYMHRFRLLLHLEEIECFVNFRNYDRDRAHFLRDGEFLTLQIENLAERRPSLVIGDTLRVINPWSDPDSQTTKSYEGIIHKVLFDRILLKFHSSFQEKYNGEDYRLEFYFSRYSFRKQHHAISKIVGVMGEDFLFPSKVTKRENPQLDVYMKDDDMYLYDSKLEWYNQSLNSIQKRAVFNILRGEAENIPYVLFGPPGSGKTMTLIETLLQLVRNLPGARILVGTPSNSSADLVTKRLIDSKALLQGDFIRLVSYNQVEKDLIPPEIMSYCATSDVGAVGSCEDKMMVTESGLKLRCQAKFIGTHRITISTCTTLGNFLQLGFPAGHFTHVLFDEAGQCTEPETMVPIVMLTKKRSQVVLSGDPRQLQSIVTSRIASKMGFSISFLERLLERSPYRKDLQRFPESSGYNPLVLTKLLYNYRALPSIMSIYSRLFYDDELIPVLSEKDSRESRLLSKLRCVFESEKDIPQAHGTFFYGIIGENRQNNDSPSWFNPQEVREVFLMTIALYRANVTADQIGIITPYQKQVKMLRSMFIGTDVVMPKIGSVEEFQGQERDIILISTVRSSEEILRMDARFSLGFVRCSKRLNVAVSRARAMMIIFGNPHLLAVDECWRQLILFCVKNNAYFGCDLPQMVINQKDEVPVCLETFVPSLNTTDDLN
binding: binds
